Test results: paper PMC3479024
These are yes or no findings as the source states them, for the method shown. Binding seen in cells or lysates may run through a third protein. Binding calls can cover weak binding; strength is not graded here.

Chains of the proteins cited; added tags and fusions are not shown. Lines headed by an entry give the natural chain unless they say otherwise; changes in a name come on top.
UniProt Q07817: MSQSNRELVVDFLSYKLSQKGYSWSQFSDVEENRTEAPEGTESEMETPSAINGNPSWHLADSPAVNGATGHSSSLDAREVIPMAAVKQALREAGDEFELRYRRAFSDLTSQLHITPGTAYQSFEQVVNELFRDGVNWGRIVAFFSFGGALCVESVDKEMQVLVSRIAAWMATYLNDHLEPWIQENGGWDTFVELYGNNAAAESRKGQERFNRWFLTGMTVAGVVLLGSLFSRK
UniProt Q99497: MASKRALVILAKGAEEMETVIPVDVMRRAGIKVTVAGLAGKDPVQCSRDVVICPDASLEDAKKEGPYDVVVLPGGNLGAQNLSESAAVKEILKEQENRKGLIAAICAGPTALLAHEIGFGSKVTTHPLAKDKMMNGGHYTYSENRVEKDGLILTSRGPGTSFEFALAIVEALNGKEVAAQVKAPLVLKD

How the values were obtained:
GST-Bcl-XL (human) = GST-Bcl-XL (human) (UniProt Q07817); experiment: pull-down; competitive binding: supernatant with 50 μg His-Bax or Bcl2 incubated with 20 μg GST or GST-Bcl-XL on glutathione-agarose beads, washed, then incubated with various amounts of His-DJ-1(L166P) supernatant; immunoblot; only the target purified
GST-DJ-1 (human) = GST-DJ-1 (human) (UniProt Q99497); experiment: pull-down; 20 μg GST, GST-DJ-1 or GST-DJ-1(L166P) on glutathione-agarose beads; supernatant of E. coli crude extract with 50 μg recombinant Bcl-XL; 2 hours at 4°C; washed with HNTG buffer (20 mM Hepes-KOH pH 7.5, 100 mM NaCl, 0.1% Triton X-100, 10% glycerol); immunoblot; only the target purified
GST-DJ-1(L166P) (human) = GST-DJ-1(L166P) (human) (UniProt Q99497); experiment: as above

| binding (GST-Bcl-XL (human)) | binding (GST-DJ-1 (human)) | binding (GST-DJ-1(L166P) (human)) | Substance |
| --- | --- | --- | --- |
| binds | – | – | His-DJ-1(L166P) (from UniProt Q99497 1-189) |
| – | binds | binds | recombinant Bcl-XL (from UniProt Q07817-1) |
